Our source for the AC50 values is PubChem BioAssay AID493014 (National Center for Advancing Translational Sciences (NCATS), 2011).

The term AC50 denotes the concentration giving half of the maximal activity seen.

This assay in a line: qHTS Assay to Find Inhibitors of Chronic Active B-Cell Receptor Signaling. The settings on record: ABC-DLBCL IkBa-CBG/CBR reporter, luminescence ratio (green luciferase fused to IkBa over red control in TMD8 lymphoma cells), 4 h. The method in brief: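 TMD8 human ABC-DLBCL cells with doxycycline-inducible IκBα–green luciferase fusion and unfused red luciferase, in 0.5% FBS medium; compounds up to 46 uM, 4 h at 37C. Green/red luminescence ratio, filter-overlap corrected, fitted to concentration-response curves.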
In general terms: Quantitative high-throughput screening tests each substance at several concentrations.

The mark [1] stands for this setting: measured here: CBR red luminescence, cell number.
Setting [2] is: measured here: IkBa-CBG green luminescence.

Some of the results follow. These are further read-outs of the screen, such as a control signal, another cell line or another target. No call is given for them. Most of these compounds were active or inconclusive in the main read-out, so they are no random draw. Potencies come from curve fits of mixed quality, noted in brackets.

Turning to `NS(=O)(=O)c1ccc(NC(=O)COc2cccc3ccccc23)cc1`, the AC50 under setting [1] is 10 µM [falling, partial curve].

With `CCN(CC)c1ccc(/C=C2/C(=O)c3ccc(C(=O)O)cc3C2=O)cc1`, the AC50 under setting [1] was 10.3 µM [falling, partial curve].

Take `COc1ccc(C2(CNC(=O)c3ccc(N)cc3)CCCC2)cc1`: the AC50 under setting [1] is 35.5 µM [rising, partial curve, poor fit].

Consider `O=C(Nc1nccs1)C1CCCN(S(=O)(=O)c2cccc3cccnc23)C1` (centres undefined), for which, under setting [1], the AC50 was 0.731 µM [falling, full curve, poor fit].

As for `COc1ccc(Nc2nc3ccccc3c(=O)[nH]2)cc1`, the AC50 under setting [1] was 15.8 µM [rising, partial curve, poor fit].

Regarding `O=C(O)c1ccc(/C=N/Nc2cccc(C(F)(F)F)c2)cc1`, the AC50 under setting [1] is 1 µM [falling, partial curve].

Regarding `CN1CCN(NC(=O)Nc2ccc(Br)cc2Cl)CC1`, under setting [1], the AC50 is 1.41 µM [rising, partial curve, poor fit].

Take `O=C(CC(c1ccccc1)c1ccccc1)Nc1ccc(C(=O)O)cc1`: the half-maximal activity concentration (AC50) under setting [1] is 3.98 µM [rising, single point].

With `Cc1ccc(NC(=O)c2nc(S(=O)(=O)Cc3ccccc3C)ncc2Cl)cc1C`, the AC50 under setting [1] was 8.91 µM [falling, partial curve].

Turning to `CC(=O)c1ccccc1NC(=O)COC(=O)c1ccc2c(c1)nc(C)n2-c1ccccc1`, the concentration at half-maximal activity (AC50) under setting [1] was 0.82 µM [rising, full curve, poor fit].

In the case of `COc1ccccc1NC(=O)CSC1=Nc2ccccc2C2=NC(CC(=O)NCc3ccccc3)C(=O)N12` (centres undefined), the AC50 under setting [1] was 14.1 µM [falling, partial curve].

`O=C(O)CC1S/C(=N\N=C2\C(=O)Nc3ccccc32)N(c2ccc(O)cc2)C1=O` (centres undefined): under setting [1], the AC50 is 2.51 µM [falling, full curve].

With `Cc1cc(=O)n2[nH]c(SCc3ccc(Cl)cc3)nc2n1`, under setting [1], the AC50 was 3.55 µM [falling, partial curve].

For `COc1ccc(C(=O)/C=C/Nc2c(C)n(C)n(-c3ccccc3)c2=O)cc1OC`, the AC50 under setting [1] is 0.82 µM [rising, full curve, poor fit].

As to `COc1ccc(-c2c(C)nn3c(N)c(C#N)cnc23)cc1OC`, the AC50 was 2.82 µM [rising, full curve] under setting [1] and 4.47 µM [falling, full curve] under setting [2].

As for `O=C(/C=C/c1ccccc1Br)c1ccc2c(c1)OCO2`, the AC50 under setting [1] is 22.4 µM [falling, single point].

As for `O=C(COC(=O)CC1CC2CCC1C2)Nc1c(F)cccc1F` (centres undefined), the AC50 under setting [1] is 3.16 µM [rising, full curve, poor fit].

Consider `CN(C)S(=O)(=O)c1cccc(NC(=O)CN(CCO)CC(=O)Nc2cccc(S(=O)(=O)N(C)C)c2)c1`, for which the AC50 under setting [1] is 7.08 µM [rising, partial curve].

`CCc1ccc(C(=O)NC(CC(C)C)C(=O)O)cc1` (centres undefined): the AC50 under setting [1] is 1.3 µM [falling, full curve, poor fit].

As for `O=C(C1CCCCC1)N1CCCC(c2nc3c(nnn3Cc3ccccc3)c(=O)[nH]2)C1` (centres undefined), the AC50 under setting [1] was 15.8 µM [falling, single point].

For `CCN(CC)c1ccc(/C=C2\C(=O)c3ccc(C(=O)O)cc3C2=O)cc1`, under setting [1], the AC50 was 18.4 µM [falling, single point].

Consider `COc1ccc(C2C(C(N)=O)=C(C)Nc3nc(-c4cccc(Cl)c4)nn32)cc1OC` (centres undefined), for which the AC50 under setting [2] was 20.6 µM [falling, partial curve, poor fit].

Regarding `CC(=O)OCC(=O)[C@@]1(O)CC[C@H]2[C@@H]3CCC4=CC(=O)C=C[C@]4(C)[C@@]3(F)[C@@H](O)C[C@@]21C`, the AC50 under setting [1] is 2.06 µM [rising, full curve, poor fit].

As for `O=C(O)c1ccc(NS(=O)(=O)c2ccc3c(c2)C(=O)c2ccccc2C3=O)cc1`, the AC50 under setting [1] was 10 µM [falling, partial curve, poor fit].

Take `COc1ccc(OCC(=O)NC2CC(=O)N(c3ccc4c(c3)OCCO4)C2)cc1` (centres undefined): the concentration at half-maximal activity (AC50) under setting [1] is 10 µM [falling, partial curve, poor fit].

Turning to `CCCc1ccc2oc(C(=O)NCCc3cnn(C)c3)c(C)c2c1`, the AC50 under setting [1] is 2.24 µM [rising, full curve, poor fit].

In the case of `COC(=O)c1cn(C(=O)c2ccc(OC)c(OC)c2)c2ccccc12`, the AC50 under setting [1] was 12.6 µM [rising, single point].

As for `Cc1cc(C(F)F)n2nc(C(=O)Nc3ccccc3F)nc2n1`, the AC50 under setting [1] was 5.8 µM [rising, full curve].

Consider `Cc1nn(-c2ccccc2)c2sc(-c3n[nH]c(=S)o3)cc12`, for which the half-maximal activity concentration (AC50) under setting [1] was 0.651 µM [rising, partial curve].

On to `Cc1ccccc1C(=O)N1CCN(c2ccc(NC(=O)c3ccc4c(c3)OCCO4)cc2)CC1`, for which, under setting [1], the half-maximal activity concentration (AC50) was 8.91 µM [falling, partial curve].

On to `COc1ccccc1CNS(=O)(=O)c1ccc(NC(C)=O)cc1`, for which the concentration at half-maximal activity (AC50) under setting [1] is 29.1 µM [falling, single point].

Consider `Fc1ccc2c(c1)C(c1ccncc1)=NNC(c1ccccc1)=N2`, for which the AC50 under setting [1] was 10.3 µM [falling, partial curve].

In the case of `COc1ccccc1NNC(=O)C(O)(c1ccccc1OC)c1ccccc1OC`, the AC50 under setting [1] is 25.9 µM [falling, single point].

Turning to `COc1ccc(OC)c(N2CC(O)(c3cccs3)[N+]3=C2SCCC3)c1` (centres undefined), the AC50 under setting [1] is 0.631 µM [falling, full curve, poor fit].

Take `O=C(NC(Cc1c[nH]c2ccccc12)C(=O)N/N=C/c1ccc(Cl)cc1)c1cccs1` (centres undefined): the AC50 under setting [1] is 10 µM [falling, partial curve].

In the case of `CC(=O)Nc1ccc(CN2CCc3c([nH]c4ccccc34)C2c2ccccn2)cc1` (centres undefined), under setting [1], the AC50 is 6.31 µM [rising, single point].

In the case of `Cc1cc(=O)[nH]c(N/N=C/c2cc(C)n(CC(F)(F)F)c2C)n1`, the AC50 under setting [1] was 6.31 µM [falling, single point].

Turning to `CC(O)(CS(=O)(=O)Cc1ccc(Cl)cc1)C(=O)Nc1cccc(C(F)(F)F)c1` (centres undefined), the AC50 under setting [1] is 11.2 µM [falling, partial curve].

In the case of `ClCc1csc(N/N=C/c2cccs2)n1`, the AC50 under setting [1] was 2.82 µM [rising, full curve, poor fit].

On to `Nc1ncncc1-c1ccc2ccccc2c1`, for which the AC50 under setting [1] was 31.6 µM [falling, single point].

For `CC(C)c1ccc(NC2=NCC(=O)N2Cc2cccs2)cc1`, under setting [1], the AC50 is 12.6 µM [rising, partial curve, poor fit].

Take `Cc1[nH]c2ccc(-c3n[nH]c(=S)n3-c3ccccc3)cc2c1C`: under setting [1], the AC50 is 13 µM [rising, partial curve, poor fit].

Take `CC1CCN(c2ccccc2NC(=S)NC(=O)C(C)(C)C)CC1`: under setting [1], the AC50 was 15.8 µM [rising, partial curve, poor fit].

In the case of `COc1ccc(Cl)cc1C(=O)OCC(=O)NCc1cccs1`, the AC50 under setting [1] is 4.61 µM [rising, partial curve, poor fit].

`CCOC(=O)c1ccccc1NC(=O)CN(c1ccccc1)S(=O)(=O)N(C)C`: under setting [1], the AC50 was 2.31 µM [rising, partial curve, poor fit].

On to `CCOC(=O)N1CCN(c2nnnn2-c2ccccc2)CC1`, for which the AC50 under setting [1] is 2.06 µM [rising, partial curve, poor fit].

For `O=C(CN1C(=O)CSC1=O)Nc1ccc(N2CCOCC2)cc1`, the AC50 under setting [1] is 16.4 µM [falling, single point].

As for `C/C(=N\NC(=O)c1ccc(F)cc1)c1ccc(N2CCOCC2)cc1`, under setting [1], the concentration at half-maximal activity (AC50) is 10 µM [falling, partial curve].

As for `Cc1cccc(-n2ncc3c(NCCCO)ncnc32)c1`, the AC50 under setting [1] was 29.1 µM [falling, single point].

As for `CCCCOc1ccc(C(=O)NCC(=O)NCCCn2nc(C)cc2C)cc1`, the AC50 under setting [1] is 3.66 µM [rising, single point].

On to `Cc1ccc(C(=O)Nc2ccc(C(=O)N/N=C/c3c[nH]c4ccccc34)cc2)cc1`, for which the AC50 under setting [1] is 23.1 µM [falling, single point].

On to `CCOc1cc(CNc2ccc(N3CCN(C(C)=O)CC3)cc2)cc(Br)c1OC`, for which the AC50 under setting [1] is 32.6 µM [falling, partial curve, poor fit].

Take `Cn1c(CSc2nnc(SCc3ccccc3)s2)nc2ccccc21`: the half-maximal activity concentration (AC50) under setting [1] was 35.5 µM [falling, single point].

Regarding `CC(C)c1ccc(N(C(=O)c2snc(C(N)=O)c2N)C(C(=O)NC2CCCC2)c2ccncc2)cc1` (centres undefined), the AC50 under setting [1] is 15.8 µM [falling, single point].

In the case of `c1ccc(C2=Nn3c(Cn4nnc5ccccc54)nnc3SC2)cc1`, the AC50 under setting [1] is 11.2 µM [falling, partial curve, poor fit].

For the compound `COc1ccc(-c2c3c(=O)n(C)c(=O)n(C)c3cn2Cc2cccnc2)cc1`, the half-maximal activity concentration (AC50) under setting [1] was 4.47 µM [rising, full curve, poor fit].

In the case of `O=C1c2cccnc2C(Nc2cccc(F)c2)N1Cc1ccco1` (centres undefined), the AC50 under setting [1] is 35.5 µM [falling, single point].

Take `COc1cc(OC)cc(C(=O)c2c(C)c(C#N)c3ccccn23)c1`: under setting [1], the AC50 is 20 µM [rising, partial curve, poor fit].

For the compound `O=C(O)CC1(CC(=O)NCc2ccc(F)cc2)CCCCC1`, under setting [1], the AC50 was 35.5 µM [rising, partial curve, poor fit].

On to `COc1ccc(OC)c(S(=O)(=O)NCC2CCCO2)c1` (centres undefined), for which the AC50 under setting [1] is 5.62 µM [rising, single point].

Turning to `O=C(N/N=C\c1ccc([N+](=O)[O-])s1)c1cncc(Br)c1`, the AC50 under setting [1] was 5.8 µM [falling, partial curve].

In the case of `CC(C)(C)NC(=O)NC(=O)COC(=O)c1cccc(NS(=O)(=O)c2ccc(F)c(F)c2)c1`, the AC50 under setting [1] was 23.1 µM [falling, single point].

Turning to `COc1ccc(S(=O)(=O)Nc2ccc3c(c2)C(=O)N([C@H](C)CO)C[C@H](C)[C@@H](CN(C)S(=O)(=O)c2ccc(F)cc2)O3)cc1`, the AC50 under setting [1] is 9.2 µM [rising, partial curve, poor fit].
